Experimental data taken from PubChem BioAssay AID588347 (National Center for Advancing Translational Sciences (NCATS), 2011).
The inconclusive results got no clear call from the source; some entries with a clear call stand among them for comparison. Potencies beside an inconclusive call are fits to weak or partial responses and may not hold up. Activity calls are given as the source filed them. The call rests on the fitted dose curve; in most records, active means well fitted inhibition curve with a large enough effect; inconclusive means small, poorly fitted or top-dose-only effect, or another doubt; inactive means no such curve, though single readings can be large or run the other way.

Chains of the proteins cited; added tags and fusions are not shown.
UniProt Q92830, whole entry, looked up: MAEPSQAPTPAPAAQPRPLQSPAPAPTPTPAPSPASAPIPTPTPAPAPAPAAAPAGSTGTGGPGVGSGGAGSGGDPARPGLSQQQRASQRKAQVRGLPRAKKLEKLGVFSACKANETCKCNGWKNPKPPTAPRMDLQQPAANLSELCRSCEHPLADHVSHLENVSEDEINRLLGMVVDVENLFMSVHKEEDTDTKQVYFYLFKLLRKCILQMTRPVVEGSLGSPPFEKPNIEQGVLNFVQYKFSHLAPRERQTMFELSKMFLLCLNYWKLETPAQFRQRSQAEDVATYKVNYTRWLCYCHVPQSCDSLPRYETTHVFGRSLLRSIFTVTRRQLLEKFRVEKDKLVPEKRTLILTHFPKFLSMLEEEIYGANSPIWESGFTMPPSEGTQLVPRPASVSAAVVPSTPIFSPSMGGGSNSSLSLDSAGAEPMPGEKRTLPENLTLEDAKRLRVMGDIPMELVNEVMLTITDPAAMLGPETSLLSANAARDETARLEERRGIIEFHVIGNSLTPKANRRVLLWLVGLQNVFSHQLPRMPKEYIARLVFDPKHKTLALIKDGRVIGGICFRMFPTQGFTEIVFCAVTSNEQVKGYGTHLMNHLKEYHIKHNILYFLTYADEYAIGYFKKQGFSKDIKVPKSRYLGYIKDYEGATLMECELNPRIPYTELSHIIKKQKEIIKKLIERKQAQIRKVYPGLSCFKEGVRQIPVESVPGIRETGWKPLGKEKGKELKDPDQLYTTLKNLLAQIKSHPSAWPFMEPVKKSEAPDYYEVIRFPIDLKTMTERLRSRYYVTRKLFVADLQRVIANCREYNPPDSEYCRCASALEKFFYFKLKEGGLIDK

biological target: Histone acetyltransferase KAT2A (Homo sapiens) (UniProt Q92830); assay: qHTS Assay for Inhibitors of GCN5L2: Hit confirmation; conditions: GCN5L2 HAT, ThioGlo1 CoA fluorescence, 20 min
Excerpt: Histone acetyltransferase (HAT) enzymes transfer a […] group from acetyl-coenzyme A to the epsilon-amino group of conserved lysine residues of N-terminal histone tails. Acetylation results in charge neutralization of this positively charged amino acid, decreasing interactions with the […] backbone and making the DNA more accessible for transcription. HATs have been recognized as an emerging drug target for treatment of cancer, diabetes, asthma, chronic obstructive pulmonary disease, cardiac disease, and viral infection. Protein identified with HAT activity include the […] like 2 (GCN5L2, a.ka. Histone acetyltransferase KAT2A) which acetylates histone H3 at Lys9, 14, 18, 13, and to lesser extent histones H4 and H2B. This activates transcription of the gene by modulating chromatin structure and installing the acetyllysine recognition mark for bromodomain-containing coactivator proteins. A quantitative high throughput screen was developed to identify small molecule inhibitors. The assay is based on the principle that it measures formation of reduced CoA with the pro-fluorescent maleimide derivative ThioGlo1 that becomes fluorescent upon reaction with the free thiol of CoA. A large number of artifacts are expected in this primary screen, compounded by the assay format (fluorescent artifacts) and by the high top concentration tested for each substance. This BioAssay data deposition should be used with caution, and counterscreen and secondary assay validation is essential since very few actives from the primary screen are expected to be true inhibitors of GCN5L2. Esteller, M. Epigenetics in Cancer. N Engl J Med 358(11), 1148-1159. (2008). PMID: 18337604 [2] Yasgar, et al. Compound Management for Quantitative High-Throughput Screening. JALA. 2008 Apr;13(2):79-89. PMID: 18496600 [3] Inglese, et al. Quantitative high-throughput screening: a titration-based approach that efficiently identifies biological activities in large chemical libraries. Proc Natl Acad Sci. 1;103(31):11473-8. 2006. PMID: 16864780 NIH Chemical Genomics Center [NCGC] NIH Molecular Libraries Probe Production Network [MLPCN] MLCPN Grant: MH084681-02 Assay Submitter (PI): Structural Genomic Consortium - Toronto, Peter Brown
To each well of a 1,536w plate, 3ul of GCN5L2 (final concentration 20nM, in 50mM HEPES, 0.1mM EDTA (pH 7.5), 0.01% Tween-20 buffer) are added using a Kalypsys dispenser. Only buffer is added to some wells as a control. A Kalypsys pin-tool transferred 23nl of library compound solution in DMSO to each well, as well as the control inhibit garcinol. . Following a 15 min incubation of enzyme with compounds at room temperature, 1ul mixture of ThioGlo1 (50uM final), H3(1-25) peptide (75uM final), and Acetyl-CoA (70uM final) is added. Plates are read immediately on the ViewLux (PerkinElmer) (Ex340nm/Em540nm) for a 0 min read, incubated for 20 min at room temperature, and read again on the ViewLux with the same settings. The initial read was carried out to identify compounds that are potentially fluorescent.

Potency, inconclusive:
Nc1c(C(=O)N2CCCCC2)sc(=S)n1-c1ccccc1 22.9 µM [inhibitor, partial curve], O=C(OCCN1C(=O)c2cccc3c(N4CCOCC4)ccc(c23)C1=O)c1cccc(Cl)c1 40.8 µM [inhibitor, single point], COc1ccc2cc(-c3cc(C(=O)O)c4ccccc4n3)ccc2c1 36.3 µM [inhibitor, single point], CC1=NN(c2cccc(C(=O)O)c2)C(=O)/C1=C\C=C\c1ccco1 20.4 µM [inhibitor, partial curve], COC(=O)c1sccc1NC(=O)CC1C(=O)NCCN1C(=O)c1c(F)cccc1Cl (stereo not given) 8.13 µM [inhibitor, partial curve], O=C(Nc1cccc(S(=O)(=O)NC2=NCCC2)c1)c1cc(-c2ccco2)nc2ccccc12 14.5 µM [inhibitor, partial curve], CCn1c2ccccc2c2nc3cc(S(=O)(=O)N4CCOCC4)ccc3nc21 3.63 µM [inhibitor, full curve], O=C(CN1C(=O)/C(=C2/SC(=S)N(CCS(=O)(=O)O)C2=O)c2ccccc21)Nc1cccc(C(F)(F)F)c1 22.9 µM [inhibitor, partial curve], COc1ccc(CCn2c(O)cc3nn(-c4nc5ccccc5s4)c(=O)c-3c2C)cc1 22.9 µM [inhibitor, partial curve], CCSc1ccccc1C(=O)Nc1ccc(S(=O)(=O)NC(C)=O)cc1 45.7 µM [inhibitor, single point], Cc1ccc(C2=NOC(=O)/C2=C\C=C\c2ccccc2)cc1 11.5 µM [inhibitor, partial curve], CNC(=O)NC(=O)C(C)OC(=O)c1c2c(nc3ccccc13)/C(=C/c1cccs1)CC2 (stereo not given) 16.2 µM [inhibitor, partial curve], CSc1ccc(/C=N/Nc2cccc(C(=O)O)c2)cc1 7.25 µM [inhibitor, partial curve], O=C(Cc1ccc(Cl)cc1Cl)Nc1cccc(S(=O)(=O)Nc2ccccc2F)c1 5.13 µM [inhibitor, full curve], Cc1ccc(S(=O)(=O)N2[C@@H](c3ccccc3F)C(C(=O)O)=CC[C@H]2c2ccc(Cl)c(Cl)c2)cc1 45.7 µM [inhibitor, single point], CCN(CC)Cc1c(O)ccc2c(=O)c(Oc3ccccc3OC)coc12 40.8 µM [inhibitor, partial curve], Nc1c(C(=O)NCc2ccco2)sc2nc(N3CCOCC3)c3c(c12)CCCC3 40.8 µM [inhibitor, single point], CCOC(=O)c1c(-c2ccco2)csc1NC(=O)COC(=O)c1cnccn1 36.3 µM [inhibitor, single point], CC1=NOC(=O)/C1=C\c1ccc(-c2cccc(Cl)c2)o1 20.4 µM [inhibitor, partial curve], N#C/C(=C\c1cccs1)C(=O)c1ccccc1Cl 20.4 µM [inhibitor, partial curve], COc1cccc2c1NC(C(=O)O)C1CC=CC21 (stereo not given) 11.5 µM [inhibitor, partial curve], CCOc1cc(/C=C2\CCCc3c2nc2ccccc2c3C(=O)O)ccc1OC 45.7 µM [inhibitor, single point], O=C(O)c1ccc(-n2cccc2/C=C2/NC(=O)N(c3cccc(Cl)c3)C2=O)cc1 18.2 µM [inhibitor, partial curve], Cc1ccc([C@H]2C(C(=O)O)=CC[C@@H](c3ccc(Cl)cc3)N2S(=O)(=O)c2ccc(C)cc2)cc1 22.9 µM [inhibitor, partial curve], O=C(N/N=C/c1ccc(-c2ccc(S(=O)(=O)Nc3ncccn3)cc2)o1)c1cc2ccccc2cc1O 12.9 µM [inhibitor, partial curve], Cc1nc(SCC(=O)c2ccc(F)cc2)n[nH]1 36.3 µM [inhibitor, partial curve], C=CCn1c(SCC(=O)Nc2cc(Cl)ccc2C(=O)O)nc2sc(C)c(C)c2c1=O 32.4 µM [inhibitor, partial curve], CCOc1ccc(-n2c(C)cc(/C=C3/C(=N)N4C(=NC3=O)SN=C4S(C)(=O)=O)c2C)cc1 32.4 µM [inhibitor, partial curve]

Potency, active:
COc1ccc(C(=O)N/N=C/c2ccc3cccc(OCc4ccccc4)c3n2)cc1 22.9 µM, CCOC(=O)C1CCCN(C(=O)c2cc(-c3ccco3)nc3ccccc23)C1 (stereo not given) 18.2 µM, O=C(O)c1cc(-c2ccc(-c3c(-c4ccc5c(c4)OCO5)noc3-c3ccsc3)cc2)nc2ccccc12 16.2 µM, O=C(C1=NN(c2ccccc2)C2C(=O)N(c3cccc(Cl)c3)C(=O)C12)c1ccccc1 (stereo not given) 36.3 µM, CCc1ccc(S(=O)(=O)/N=C2/C=C(Sc3ncn[nH]3)C(=O)c3ccccc32)cc1 4.57 µM, Cc1ccc(S(=O)(=O)/N=C2/C=C(Sc3ncn[nH]3)C(=O)c3ccccc32)cc1 1.29 µM, CC(=O)c1ccc(-c2nc3ccccc3n2C)o1 18.2 µM, O=c1[nH]c2ccccc2n2c(-c3ccccc3)nnc12 6.46 µM, N=C1/C(=C/c2ccc(-c3cccc(C(=O)O)c3)o2)C(=O)N=C2SC=C(c3ccccc3)N12 16.2 µM, O=C(COC(=O)c1ccccc1)Nc1ncc([N+](=O)[O-])s1 4.57 µM, Nc1ccc(-c2nc3cc(N)ccc3n2CCO)cc1 18.2 µM, CC(C)c1ccc(S(=O)(=O)/N=C2\C=C(NS(=O)(=O)c3ccccc3)C(=O)c3ccccc32)cc1 9.13 µM
